# Assay results taken from the supplement of paper PMC4604168 (melanoma cell lines).
# This is one part of the list. Many values rest on one well or one pass, so single values are uncertain.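 Imaging used 1,536-well plates; nuclei positive for cleaved PARP by antibody were divided by total DNA-stained nuclei to yield the apoptosis fraction. Doses for screening kept most cells viable, and cell lines differ markedly in resting and induced cleaved-PARP levels.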
# Test system: G361
# Assay: cleaved PARP positive nuclei fraction relative to DMSO control; melanoma cells; higher = more apoptosis
# Conditions: library dose: low library concentration; 72 h
row,SMILES,cleaved PARP positive nuclei fraction
1,"O=C(CCCCCCC(=O)Nc1ccccc1)NO [vorinostat] + CCCCCCCCCCCC1=C(O)C(=O)C=C(O)C1=O [Embelin] (first compound 0.08 µM, partner dose 1.2 µM)",155%
2,"Cn1nnc2c(C(N)=O)ncn2c1=O [temozolomide] + Cn1cc(/C=C2\C(=O)Nc3cccnc32)c2ccccc21 [GW441756] (first compound 2 µM, partner dose 0.4 µM)",93.2%
3,"Nc1cccc2c1CN(C1CCC(=O)NC1=O)C2=O (stereo unspecified) [lenalidomide] + COc1cc2ncnc(Nc3ccc(Oc4ccccc4)cc3)c2cc1OC [SrcI1] (first compound 1 µM, partner dose 2 µM)",120%
4,"COc1cc(Nc2ncc(F)c(Nc3ccc4c(n3)NC(=O)C(C)(C)O4)n2)cc(OC)c1OC [Tamatinib] + CCc1ccc(CCOc2ccc(CC3SC(=O)NC3=O)cc2)nc1 [pioglitazone] (first compound 0.4 µM, partner dose 2 µM)",88.1%
5,"Cc1nc(Nc2ncc(C(=O)Nc3c(C)cccc3Cl)s2)cc(N2CCN(CCO)CC2)n1 [dasatanib] + COc1cc(N2CCC(N3CCN(C)CC3)CC2)ccc1Nc1ncc(Cl)c(Nc2ccccc2S(=O)(=O)C(C)C)n1 [NVP-TAE684] (first compound 0.004 µM, partner dose 0.08 µM)",80.6%
6,"Cn1c(Nc2ccc(C(F)(F)F)cc2)nc2cc(Oc3ccnc(-c4ncc(C(F)(F)F)[nH]4)c3)ccc21 + Cc1cc([N+](=O)[O-])ccc1NS(=O)(=O)c1cc(Cl)ccc1Cl [FH535] (first compound 0.08 µM, partner dose 1 µM)",359%
7,"O=C(CCCCCCC(=O)Nc1ccccc1)NO [vorinostat] + O=S(=O)(c1ccccc1)N(CC(F)(F)F)c1ccc(C(O)(C(F)(F)F)C(F)(F)F)cc1 [T0901317] (first compound 0.08 µM, partner dose 1.4 µM)",157%
8,"CC(C)(C)c1cnc(CSc2cnc(NC(=O)C3CCNCC3)s2)o1 + CCc1ccc(CCOc2ccc(CC3SC(=O)NC3=O)cc2)nc1 [pioglitazone] (first compound 0.01 µM, partner dose 2 µM)",25.1%
9,"COc1cc(Nc2ncc(F)c(Nc3ccc4c(n3)NC(=O)C(C)(C)O4)n2)cc(OC)c1OC [Tamatinib] + Cn1cc(/C=C2\C(=O)Nc3cccnc32)c2ccccc21 [GW441756] (first compound 0.4 µM, partner dose 0.4 µM)",27.4%
10,"C#Cc1cccc(Nc2ncnc3cc(OCCOC)c(OCCOC)cc23)c1 [erlotinib] + N#Cc1c(O)c2c(-c3ccc(-c4ccccc4O)cc3)csc2[nH]c1=O [A769662] (first compound 0.8 µM, partner dose 2 µM)",111%
11,"OCCn1cc(-c2cnc3nnn(Cc4ccc5ncccc5c4)c3n2)cn1 + COc1cc(N2CCC(N3CCN(C)CC3)CC2)ccc1Nc1ncc(Cl)c(Nc2ccccc2S(=O)(=O)C(C)C)n1 [NVP-TAE684] (first compound 1 µM, partner dose 0.08 µM)",74.9%
12,"O=C(Nc1cccc(Cl)c1)Nc1ncc(CCNc2ncnc3ccsc23)s1 + COc1ccc(COc2ccc(Cc3cnc(N)nc3N)cc2OC)cc1 [GW2580] (first compound 0.0008 µM, partner dose 1 µM)",105%
13,"Cc1nc(Nc2ncc(C(=O)Nc3c(C)cccc3Cl)s2)cc(N2CCN(CCO)CC2)n1 [dasatanib] + O=C1NC(=O)/C(=C/c2ccc(-c3ccc(F)cc3O)o2)S1 [AS252424] (first compound 0.004 µM, partner dose 1 µM)",146%
14,"C[C@]1(c2nc3c(C(N)=O)cccc3[nH]2)CCCN1 [Veliparib] + Cc1cc([N+](=O)[O-])ccc1NS(=O)(=O)c1cc(Cl)ccc1Cl [FH535] (first compound 1.4 µM, partner dose 1 µM)",101%
15,"C[C@@H]1CCN(C(=O)CC#N)C[C@@H]1N(C)c1ncnc2[nH]ccc12 + COc1cc2ncnc(Nc3ccc(Oc4ccccc4)cc3)c2cc1OC [SrcI1] (first compound 1 µM, partner dose 2 µM)",47.9%
16,"CC1(C)NC(=O)N(c2ccc([N+](=O)[O-])c(C(F)(F)F)c2)C1=O [nilutamide] + c1cc(-c2cnn3cc(-c4ccc(OCCN5CCCCC5)cc4)cnc23)ccn1 [Dorsomorphin] (first compound 1 µM, partner dose 0.4 µM)",52%

# Part of the list above, set out differently.
row	SMILES	cleaved PARP positive nuclei fraction
1	O=C(CCCCCCC(=O)Nc1ccccc1)NO [vorinostat] + CCCCCCCCCCCC1=C(O)C(=O)C=C(O)C1=O [Embelin] (first compound 0.08 µM, partner dose 1.2 µM)	155%
6	Cn1c(Nc2ccc(C(F)(F)F)cc2)nc2cc(Oc3ccnc(-c4ncc(C(F)(F)F)[nH]4)c3)ccc21 + Cc1cc([N+](=O)[O-])ccc1NS(=O)(=O)c1cc(Cl)ccc1Cl [FH535] (first compound 0.08 µM, partner dose 1 µM)	359%
9	COc1cc(Nc2ncc(F)c(Nc3ccc4c(n3)NC(=O)C(C)(C)O4)n2)cc(OC)c1OC [Tamatinib] + Cn1cc(/C=C2\C(=O)Nc3cccnc32)c2ccccc21 [GW441756] (first compound 0.4 µM, partner dose 0.4 µM)	27.4%
10	C#Cc1cccc(Nc2ncnc3cc(OCCOC)c(OCCOC)cc23)c1 [erlotinib] + N#Cc1c(O)c2c(-c3ccc(-c4ccccc4O)cc3)csc2[nH]c1=O [A769662] (first compound 0.8 µM, partner dose 2 µM)	111%
